Experimental data reported in paper PMC6180656.
These are yes or no findings as the source states them, for the method shown. Binding seen in cells or lysates may run through a third protein. Some entries that bind do so weakly or less than the wild type. Tags and fused reporters may be left off the sequences shown.

By UniProt entry, the sequences of proteins in these tests, tags left out.
UniProt Q14008: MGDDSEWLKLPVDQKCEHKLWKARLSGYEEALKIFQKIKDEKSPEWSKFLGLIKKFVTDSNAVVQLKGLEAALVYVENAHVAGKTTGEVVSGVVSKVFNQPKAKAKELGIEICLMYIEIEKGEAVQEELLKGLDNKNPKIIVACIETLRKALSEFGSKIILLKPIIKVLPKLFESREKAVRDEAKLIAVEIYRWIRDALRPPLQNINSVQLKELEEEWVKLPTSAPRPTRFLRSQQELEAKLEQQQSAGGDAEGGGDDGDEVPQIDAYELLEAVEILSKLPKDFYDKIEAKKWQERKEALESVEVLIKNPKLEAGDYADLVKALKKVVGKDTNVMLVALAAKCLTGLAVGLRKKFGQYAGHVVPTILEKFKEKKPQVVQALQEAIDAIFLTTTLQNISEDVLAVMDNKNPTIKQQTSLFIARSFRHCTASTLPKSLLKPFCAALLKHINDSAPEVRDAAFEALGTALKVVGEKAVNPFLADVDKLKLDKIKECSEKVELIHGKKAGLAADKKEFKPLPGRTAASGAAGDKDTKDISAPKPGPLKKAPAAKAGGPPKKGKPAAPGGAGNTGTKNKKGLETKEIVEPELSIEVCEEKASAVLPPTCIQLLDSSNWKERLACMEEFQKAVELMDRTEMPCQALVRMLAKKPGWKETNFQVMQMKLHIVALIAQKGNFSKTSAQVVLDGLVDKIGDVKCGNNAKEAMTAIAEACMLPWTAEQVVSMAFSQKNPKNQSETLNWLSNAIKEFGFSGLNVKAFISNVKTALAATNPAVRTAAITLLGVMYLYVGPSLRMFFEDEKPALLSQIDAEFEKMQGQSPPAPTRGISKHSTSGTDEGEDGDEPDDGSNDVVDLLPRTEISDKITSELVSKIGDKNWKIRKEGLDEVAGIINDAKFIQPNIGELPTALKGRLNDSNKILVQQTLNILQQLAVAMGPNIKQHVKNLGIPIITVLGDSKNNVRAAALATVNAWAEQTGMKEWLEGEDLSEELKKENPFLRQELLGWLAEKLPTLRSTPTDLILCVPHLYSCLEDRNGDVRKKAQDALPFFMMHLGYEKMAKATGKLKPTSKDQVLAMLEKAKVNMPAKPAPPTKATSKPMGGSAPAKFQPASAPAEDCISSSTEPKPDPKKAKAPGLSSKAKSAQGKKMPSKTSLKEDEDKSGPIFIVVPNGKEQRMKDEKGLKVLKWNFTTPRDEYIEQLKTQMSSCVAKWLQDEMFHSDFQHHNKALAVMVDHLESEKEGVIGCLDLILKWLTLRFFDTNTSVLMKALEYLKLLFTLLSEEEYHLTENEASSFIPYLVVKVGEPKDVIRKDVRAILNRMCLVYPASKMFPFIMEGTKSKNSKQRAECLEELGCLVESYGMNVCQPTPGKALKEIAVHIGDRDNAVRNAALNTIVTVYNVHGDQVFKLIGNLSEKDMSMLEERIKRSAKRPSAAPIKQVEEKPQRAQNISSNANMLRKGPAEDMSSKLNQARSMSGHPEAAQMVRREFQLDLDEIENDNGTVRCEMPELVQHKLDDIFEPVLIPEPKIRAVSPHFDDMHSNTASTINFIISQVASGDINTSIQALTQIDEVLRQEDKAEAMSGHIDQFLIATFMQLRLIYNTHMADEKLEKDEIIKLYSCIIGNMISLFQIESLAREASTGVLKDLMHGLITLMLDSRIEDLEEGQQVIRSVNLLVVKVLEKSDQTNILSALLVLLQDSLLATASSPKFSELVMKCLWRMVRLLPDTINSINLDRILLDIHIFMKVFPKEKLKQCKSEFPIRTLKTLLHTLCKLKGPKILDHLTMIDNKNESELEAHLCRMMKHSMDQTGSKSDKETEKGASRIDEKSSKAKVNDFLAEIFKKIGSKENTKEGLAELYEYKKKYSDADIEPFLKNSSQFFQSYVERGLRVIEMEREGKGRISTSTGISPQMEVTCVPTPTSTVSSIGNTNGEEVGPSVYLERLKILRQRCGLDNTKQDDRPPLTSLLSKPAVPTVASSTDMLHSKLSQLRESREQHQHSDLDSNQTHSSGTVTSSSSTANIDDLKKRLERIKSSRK

What was measured:
[1] = biological target: T1, Glutathione S-transferase (GST)-ARHGEF16 fusion protein (human) (UniProt Q5VV41); assay: pull-down; purified GST-ARHGEF16 immobilized on Glutathione Sepharose 4B beads, incubated with lysate from U87 cells; immunoblotting; only the target purified
T1 sequence: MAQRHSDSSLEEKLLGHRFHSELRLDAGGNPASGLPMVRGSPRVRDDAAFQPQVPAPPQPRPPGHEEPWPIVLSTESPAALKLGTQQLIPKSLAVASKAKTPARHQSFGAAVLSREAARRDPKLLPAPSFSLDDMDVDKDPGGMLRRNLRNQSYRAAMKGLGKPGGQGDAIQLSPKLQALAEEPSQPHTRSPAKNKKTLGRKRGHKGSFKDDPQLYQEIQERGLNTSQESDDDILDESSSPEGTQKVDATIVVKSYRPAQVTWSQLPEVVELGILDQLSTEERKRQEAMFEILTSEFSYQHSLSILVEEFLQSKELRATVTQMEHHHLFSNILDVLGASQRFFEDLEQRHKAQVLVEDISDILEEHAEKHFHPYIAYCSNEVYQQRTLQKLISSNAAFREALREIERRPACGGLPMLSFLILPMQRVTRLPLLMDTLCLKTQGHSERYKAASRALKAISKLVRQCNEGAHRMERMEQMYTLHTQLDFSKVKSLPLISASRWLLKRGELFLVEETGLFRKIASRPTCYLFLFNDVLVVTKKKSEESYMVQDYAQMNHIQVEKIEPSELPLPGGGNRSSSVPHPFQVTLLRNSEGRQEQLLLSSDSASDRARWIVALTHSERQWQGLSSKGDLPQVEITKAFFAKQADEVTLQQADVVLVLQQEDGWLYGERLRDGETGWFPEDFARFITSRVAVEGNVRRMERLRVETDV

Flag-ARHGEF16 (human) = biological target: T2, Flag-ARHGEF16 (human) (UniProt Q5VV41); assay: co-IP; pre-cleared cell lysate with Flag-ARHGEF16 incubated with anti-Flag magnetic beads, 4 h at 4 °C; lysis buffer 0.5% Lubrol-PX, 50 mM KCl, 2 mM CaCl2, 20% glycerol, 50 mM Tris-HCl pH 7.4; western blotting; U87 cells
T2 sequence: T1 sequence

binding [1]: binds
binding (Flag-ARHGEF16 (human)): binds
Substance: Cytoskeleton-associated protein 5 (CKAP5) of U87 cells (from UniProt Q14008 1-2032)
